Taken from: PubChem BioAssay AID1053208 (Peter MacCallum Cancer Centre, 2014)
Test: 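Synthetic lethal interactions between gene loss and doxorubicin in osteosarcoma cells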 (primary screen). System: mouse osteosarcoma cells, early-passage culture from an engineered mouse model of fibroblastic bone tumour. Reagent: siRNA pool against mouse genes, 40 nM. Timing: about 120 h (48 h before drug, then 72 h with drug). Conditions: doxorubicin 100 nM for 72 h, roughly 30-40% inhibitory dose. Measured: 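Luminescent ATP signal taken as viability with or without 100 nM doxorubicin for 72 h; mean of two wells set against non-targeting siRNA and turned into robust z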. Scale: viability z-score with doxorubicin and doxorubicin viability vs non-targeting: higher = more viable cells under doxorubicin; viability z-score without drug: higher = more viable cells with knock-down alone; z-score of drug to no-drug ratio: higher = less drug sensitisation by knock-down. Rule for the call: 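Called active if knock-down leaves viability unchanged without drug (z within -2 to 2) but lowers it with doxorubicin (z at or under -2)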.
This is a random part of about 17,000 reagents. Over the whole deposit, 788 (4.7%) are marked active. 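Calls rest on z-score classes alone; an extra cut-off of viability at most 70% of control was not applied to them.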 Entries without a mark were called inactive.

target gene | combined z-score class | viability z-score with doxorubicin | viability z-score without drug | z-score of drug to no-drug ratio | doxorubicin viability vs non-targeting
Cfdp1 (craniofacial development protein 1) | no change with or without drug | -1.57 | -0.51 | -1.24 | 0.8
Aloxe3 (arachidonate lipoxygenase 3) | no change with or without drug | -1.12 | 0.17 | -1.12 | 0.84
D17H6S56E-5 (DNA segment, Chr 17, human D6S56E 5) | no change with or without drug | -0.67 | 0.51 | -0.9 | 0.88
Ivl (involucrin) | no change with or without drug | -1.24 | -0.51 | -0.9 | 0.83
Cdc123 (cell division cycle 123) | no change with or without drug | 0.9 | -1.18 | 2.02 | 1.02
Eya4 (EYA transcriptional coactivator and phosphatase 4) | no change with or without drug | 0.9 | 0.51 | 0.67 | 1.02
1700012B09Rik (RIKEN cDNA 1700012B09 gene) | no change with or without drug | -0.11 | 0.51 | -0.34 | 0.93
Or13a18 (olfactory receptor family 13 subfamily A member 18) | no change with or without drug | -0.34 | -1.69 | 1.01 | 0.91
Fmo9 (flavin containing monooxygenase 9) | no change with or without drug | -0.9 | -0.67 | -0.34 | 0.86
Plekha4 (pleckstrin homology domain containing A4) | no change with or without drug | -1.01 | 1.52 | -1.8 | 0.85
Ins1 (insulin I) | no change with or without drug | 0 | -0.17 | 0.22 | 0.94
Or2a57 (olfactory receptor family 2 subfamily A member 57) | no change with or without drug | -1.35 | -0.17 | -1.24 | 0.82
Akap19 (A-kinase anchoring protein 19) | no change with or without drug | -1.01 | -0.17 | -0.9 | 0.85
Ndufb7 (NADH:ubiquinone oxidoreductase subunit B7) | low cell count with and without drug | -3.37 | -3.2 | -1.57 | 0.64
Hspa9 (heat shock protein family A (Hsp70) member 9) | low cell count with and without drug | -3.6 | -3.2 | -1.8 | 0.62
Myl6b (myosin, light polypeptide 6B) | high cell count without drug only | 1.01 | 2.19 | -0.34 | 1.03
Nrtn (neurturin) | no change with or without drug | -1.35 | -0.51 | -1.01 | 0.82
Det1 (DET1 partner of COP1 E3 ubiquitin ligase) | no change with or without drug | 0.9 | 1.01 | 0.34 | 1.02
Eif1b (eukaryotic translation initiation factor 1B) | no change with or without drug | 0.45 | 0 | 0.56 | 0.98
Brcc3 (BRCA1/BRCA2-containing complex, subunit 3) | no change with or without drug | 0.9 | 1.52 | 0 | 1.02
Ngly1 (N-glycanase 1) | no change with or without drug | 0.79 | 1.52 | -0.11 | 1.01
Vwc2l (von Willebrand factor C domain-containing protein 2-like) | no change with or without drug | -0.22 | 1.35 | -1.01 | 0.92
H2-M10.1 (histocompatibility 2, M region locus 10.1) | no change with or without drug | 0.22 | -1.35 | 1.35 | 0.96
Srpx2 (sushi-repeat-containing protein, X-linked 2) | no change with or without drug | -0.34 | -1.52 | 0.9 | 0.91
Acsm2 (acyl-CoA synthetase medium-chain family member 2) | no change with or without drug | -0.22 | -0.17 | 0 | 0.92
Hccs (holocytochrome c synthetase) | no change with or without drug | 0.79 | 0.34 | 0.67 | 1.01
Klhl24 (kelch-like 24) | no change with or without drug | -1.46 | 1.69 | -2.36 | 0.81
Pramel3c (PRAME like 3C) | no change with or without drug | -1.57 | 1.01 | -2.14 | 0.8
Terf2ip (telomeric repeat binding factor 2, interacting protein) | no change with or without drug | -0.22 | 1.52 | -1.12 | 0.92
Gramd1a (GRAM domain containing 1A) | low cell count with and without drug | -2.7 | -9.95 | 10.8 | 0.7
Dus4l (dihydrouridine synthase 4 like) | no change with or without drug | -0.79 | 1.18 | -1.46 | 0.87
Itga5 (integrin alpha 5 (fibronectin receptor alpha)) | no change with or without drug | -1.46 | -1.69 | -0.34 | 0.81
Snhg16 (small nucleolar RNA host gene 16) | no change with or without drug | -1.35 | -0.17 | -1.24 | 0.82
Nelfb (negative elongation factor complex member B) | no change with or without drug | 0 | -0.67 | 0.56 | 0.94
Nkiras1 (NFKB inhibitor interacting Ras-like protein 1) | no change with or without drug | 0 | -0.84 | 0.67 | 0.94
Zfp661 (zinc finger protein 661) | no change with or without drug | 0 | 0.51 | -0.22 | 0.94
Prkar1b (protein kinase, cAMP dependent regulatory, type I beta) | no change with or without drug | 1.12 | 0 | 1.24 | 1.04
Ppm1d (protein phosphatase 1D magnesium-dependent, delta isoform) | no change with or without drug | 1.12 | -0.51 | 1.69 | 1.04

Just “z-score of drug to no-drug ratio”, for 3 of the entries above:
Akap19 (A-kinase anchoring protein 19) = -0.9
Ndufb7 (NADH:ubiquinone oxidoreductase subunit B7) = -1.57
Hspa9 (heat shock protein family A (Hsp70) member 9) = -1.8

More entries follow:
target gene | combined z-score class | viability z-score with doxorubicin | viability z-score without drug | z-score of drug to no-drug ratio | doxorubicin viability vs non-targeting
Pkp3 (plakophilin 3) | no change with or without drug | 0.67 | 0.34 | 0.56 | 1
Cacnb2 (calcium channel, voltage-dependent, beta 2 subunit) | no change with or without drug | -0.22 | 0.34 | -0.34 | 0.92
Lair1 (leukocyte-associated Ig-like receptor 1) | high cell count without drug only | 0.22 | 2.36 | -1.12 | 0.96
Pcdhgb5 (protocadherin gamma subfamily B, 5) | no change with or without drug | 0 | 0.84 | -0.45 | 0.94
Or7e168 (olfactory receptor family 7 subfamily E member 168) | no change with or without drug | -0.56 | -1.18 | 0.34 | 0.89
Plscr3 (phospholipid scramblase 3) | no change with or without drug | -0.45 | -0.17 | -0.22 | 0.9
Ofd1 (OFD1, centriole and centriolar satellite protein) | no change with or without drug | 1.46 | 0.51 | 1.24 | 1.07
Trav7d-6 (T cell receptor alpha variable 7D-6) | no change with or without drug | -1.35 | -0.17 | -1.24 | 0.82
Ptprr (protein tyrosine phosphatase receptor type R) | no change with or without drug | 1.12 | -0.51 | 1.69 | 1.04
Zc3hav1l (zinc finger CCCH-type, antiviral 1-like) | no change with or without drug | -1.12 | 1.01 | -1.69 | 0.84
Fhl3 (four and a half LIM domains 3) | no change with or without drug | -0.22 | -1.52 | 1.01 | 0.92
Atp6v0a2 (ATPase, H+ transporting, lysosomal V0 subunit A2) | no change with or without drug | -0.11 | -0.51 | 0.34 | 0.93
Tmem115 (transmembrane protein 115) | no change with or without drug | 0.67 | 0.84 | 0.22 | 1
Batf (basic leucine zipper transcription factor, ATF-like) | no change with or without drug | 0 | 0.67 | -0.34 | 0.94
Drc4 (dynein regulatory complex subunit 4) | no change with or without drug | 0 | -1.85 | 1.57 | 0.94
Stard10 (StAR related lipid transfer domain containing 10) | no change with or without drug | -1.12 | 0.34 | -1.24 | 0.84
Eomes (eomesodermin) | no change with or without drug | 1.12 | -0.67 | 1.8 | 1.04
Prr18 (proline rich 18) | low cell count with doxorubicin only (active) | -4.05 | -0.51 | -3.93 | 0.58
Spire1 (spire type actin nucleation factor 1) | no change with or without drug | 1.91 | 1.18 | 1.24 | 1.11
Tfpt (TCF3 (E2A) fusion partner) | low cell count with doxorubicin only (active) | -2.02 | 0.17 | -2.14 | 0.76
Prr13 (proline rich 13) | high cell count without drug only | 0.67 | 2.53 | -0.79 | 1
Grhpr (glyoxylate reductase/hydroxypyruvate reductase) | no change with or without drug | -0.67 | -1.01 | 0.11 | 0.88
Thbs4 (thrombospondin 4) | no change with or without drug | -1.46 | -0.51 | -1.12 | 0.81
Egr4 (early growth response 4) | low cell count with doxorubicin only (active) | -2.14 | -0.84 | -1.69 | 0.75
Uba2 (ubiquitin-like modifier activating enzyme 2) | no change with or without drug | -1.69 | -1.18 | -0.9 | 0.79
